Patent US8017576B2, “Methods and compositions to treat mucositis” (The University of Chicago, priority 2005, dated 2011)
Not every detail of the peptide structures is certain; ends, links or a residue may be inferred. Where no end group is shown, it is not given here.

Experiments:
[1] = system: Syrian golden hamsters; test: Study 1: epithelial thickening of oral mucosal surfaces in hamsters; format: in vivo, hamster; details: daily s.c. 5 or 25 mg/kg for five days
Experimental: The capacity of the AMP77-97 peptide to induce epithelial thickening of oral mucosal surfaces in mice and hamsters was studied to determine if these animals could be used to evaluate the potential of AMP77-97 peptide in the treatment of oral mucositis. In Study 1, female BDF-1 mice (n=8) and Syrian golden hamsters (n=8) were given daily subcutaneous injections of saline, mouse AMP77-97 peptide at 5 mg/kg, or 25 mg/kg for five days. […] There also appeared to be an increase in both hyperplasia and hyperkeratosis with increasing dose (more prevalent/pronounced in the animals receiving 25 mg/kg than those receiving 5 mg/kg) and duration of dosing (there were some effects seen at 2 days, but were more readily seen after 5 consecutive days). The effect was more easily observed on the dorsal than the ventral surface of the tongue.

[2] = system: BDF-1, C3H/OuJ, C3H/HeN, C57Bl/6 and Balb c mice; test: Study 2: thickening of oral epithelium in five mouse strains; format: in vivo; details: Study 2, C3H/OuJ
Source text: In Study 2, the effect of AMP77-97 peptide on thickening in the oral epithelium was compared in five different strains of mice. […] Hyperkeratosis was again observed in the esophagus of BDF-1 mice, and was also seen in C3H/HeN mice.

[3] = system: hamster cheek pouch; test: Study 6: radiation-induced cheek pouch mucositis, topical dosing; format: in vivo; details: of 192 total days
Experimental: In a separate test of efficacy (Study 6), AMP77-97 peptide was administered topically into the hamster cheek pouch (n=32). Doses of 0.5, 5 or 50 mg/kg AMP77-97 peptide in PBS were placed in the pouch three times daily from days −5 to −1 before radiation and 1 to 15 after radiation.
Acute Radiation-induced Mucositis. Oral mucositis was induced in hamsters by administering a single dose of radiation of 40 Gy. On day 0, under anesthesia (intraperitoneal injection of ketamine [160 mg/kg] and xylazine [8 mg/kg]), the left buccal pouch was everted, fixed, and radiated while the rest of the animal was shielded with lead cover. Radiation was generated using a 160-kV potential (18.75-ma) source at a focal distance of about 21 cm, hardened with a 3-mm Al filtration system. Ionizing radiation was targeted at the left buccal pouch mucosa at a rate of 1.32 Gy/minute.
Mucositis Evaluation: The progression of mucositis was monitored daily for both models. Every other day starting on day 6 postirradiation, animals were anesthetized using inhalation anesthesia, and the left buccal pouch was everted and photographed. At the conclusion of the study's clinical phase, film was developed, and resulting photos were randomly numbered and then scored in blinded fashion by two observers. A 0-5 scoring system was used that applied the following numerical score to buccal lesions: 0, normal mucosa; 1, erythema and vasodilation; 2, severe erythema and vasodilation, with erosion of superficial aspects of mucosa leaving denuded areas with decreased stippling of mucosa. 3, severe erythema, vasodilation, and formation of ulcers in one or more places. Cumulative size of ulcers involved 25% of the pouch mucosa. Pseudomembrane formation is evident. 4, severe erythema and vasodilation. Cumulative size of ulcers involved about half of the pouch mucosa. Loss of mucosal pliability. 5, diffuse, extensive ulceration. Loss of pliability, pouch can only partially be extracted from mouth; see FIG. 5. The reported scores represent the average of the observations from the two blinded observers. In this model, a score of 3 coincides with a clinically significant National Cancer Institute or WHO score 3. Severity of oral mucositis (OM) was calculated using the scores per treatment group on each observation day (mean±SE). Using the severity scores, results are also represented as percentage of days with a score of three or above.

[4] = topical 0.5 mg/kg three times daily
[5] = topical 5 mg/kg three times daily
[6] = topical 50 mg/kg three times daily

## LDALVKEKKLQGKGPGGPPPK [AMP77-97 peptide]
[1]
  effects on hamster tongue (hyperplasia, hyperkeratosis): evident in the hamster tongue, but less pronounced
[2]
  thickening of the oral epithelium: caused thickening of the oral epithelium
[3]; [4]
  Days <3: 116
  Days >=3 (mucositis score of 3 or higher): 76
[3]; [5]
  Days <3: 125
  Days >=3 (mucositis score of 3 or higher): 68
[3]; [6]
  Days <3: 130
  Days >=3 (mucositis score of 3 or higher): 62
